No constants are given. Whether binding was seen depends on the method and setting. Binding seen in cells or lysates may run through a third protein. Some entries that bind do so weakly or less than the wild type. For some of these results: Tags and fused reporters may be left off the sequences shown.
Legend:
Assay in all cases: co-IP; Neuro2a cells co-transfected with HA-USP46 and VC-tagged protein; lysis in TNE buffer with 0.1% Triton X-100; precipitation of the VC-tagged protein with anti-GFP antibody and Protein G magnetic beads at 4 °C; HA-USP46 detected by western blotting
VC-tagged KIF2A = VC-tagged KIF2A (UniProt P28740)
VC-tagged CCP110 = biological target: T1, VC-tagged CCP110 (UniProt Q7TSH4)
T1 sequence: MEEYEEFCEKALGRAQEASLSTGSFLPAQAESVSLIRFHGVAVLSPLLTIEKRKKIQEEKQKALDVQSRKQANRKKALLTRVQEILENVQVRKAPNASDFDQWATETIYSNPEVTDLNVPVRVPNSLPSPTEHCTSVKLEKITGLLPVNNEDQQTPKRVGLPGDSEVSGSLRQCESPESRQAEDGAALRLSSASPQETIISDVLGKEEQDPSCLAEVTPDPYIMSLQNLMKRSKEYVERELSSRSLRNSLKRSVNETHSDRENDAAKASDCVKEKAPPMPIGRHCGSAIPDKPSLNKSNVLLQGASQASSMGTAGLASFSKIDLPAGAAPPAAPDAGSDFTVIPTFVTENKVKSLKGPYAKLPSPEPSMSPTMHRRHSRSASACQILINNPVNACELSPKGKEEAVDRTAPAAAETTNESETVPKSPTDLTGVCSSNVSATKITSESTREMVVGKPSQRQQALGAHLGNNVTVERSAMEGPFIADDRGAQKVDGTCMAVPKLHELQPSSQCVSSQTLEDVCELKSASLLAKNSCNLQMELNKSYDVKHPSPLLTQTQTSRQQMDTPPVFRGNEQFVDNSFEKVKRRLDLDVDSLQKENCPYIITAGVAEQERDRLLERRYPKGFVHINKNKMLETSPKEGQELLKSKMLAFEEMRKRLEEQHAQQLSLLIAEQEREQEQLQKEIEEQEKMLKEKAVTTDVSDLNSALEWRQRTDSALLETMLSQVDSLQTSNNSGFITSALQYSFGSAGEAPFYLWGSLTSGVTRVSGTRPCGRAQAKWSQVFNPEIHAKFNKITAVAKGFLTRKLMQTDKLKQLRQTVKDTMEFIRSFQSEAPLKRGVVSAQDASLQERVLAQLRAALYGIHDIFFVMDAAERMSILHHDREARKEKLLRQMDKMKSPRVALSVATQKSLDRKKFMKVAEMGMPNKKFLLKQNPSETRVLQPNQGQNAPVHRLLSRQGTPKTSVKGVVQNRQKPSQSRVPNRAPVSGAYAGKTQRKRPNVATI

Amino acid sequences for entries named in this document (tags omitted). A change or cut given only in a name is not applied to a line headed by its entry. Chains listed by the source or under a name are the forms on record and can include a tag or linker.
UniProt P28740: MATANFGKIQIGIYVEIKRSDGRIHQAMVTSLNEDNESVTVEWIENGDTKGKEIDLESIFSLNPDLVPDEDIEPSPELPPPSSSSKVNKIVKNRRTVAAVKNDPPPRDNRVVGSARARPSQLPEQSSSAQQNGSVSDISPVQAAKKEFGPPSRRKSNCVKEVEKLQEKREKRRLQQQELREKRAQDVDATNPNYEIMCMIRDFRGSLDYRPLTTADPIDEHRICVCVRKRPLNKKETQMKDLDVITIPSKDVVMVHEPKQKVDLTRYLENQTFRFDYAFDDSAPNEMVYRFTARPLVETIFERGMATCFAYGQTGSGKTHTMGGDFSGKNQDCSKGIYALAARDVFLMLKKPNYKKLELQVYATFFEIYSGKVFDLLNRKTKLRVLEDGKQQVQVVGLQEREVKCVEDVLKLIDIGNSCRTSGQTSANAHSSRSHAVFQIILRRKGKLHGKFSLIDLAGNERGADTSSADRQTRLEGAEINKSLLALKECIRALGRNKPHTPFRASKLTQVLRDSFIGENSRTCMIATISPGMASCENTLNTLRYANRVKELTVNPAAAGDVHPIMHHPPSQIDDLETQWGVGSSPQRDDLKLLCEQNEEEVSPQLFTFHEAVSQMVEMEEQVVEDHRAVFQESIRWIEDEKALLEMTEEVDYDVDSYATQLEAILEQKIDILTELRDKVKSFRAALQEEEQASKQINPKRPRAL
UniProt P62069: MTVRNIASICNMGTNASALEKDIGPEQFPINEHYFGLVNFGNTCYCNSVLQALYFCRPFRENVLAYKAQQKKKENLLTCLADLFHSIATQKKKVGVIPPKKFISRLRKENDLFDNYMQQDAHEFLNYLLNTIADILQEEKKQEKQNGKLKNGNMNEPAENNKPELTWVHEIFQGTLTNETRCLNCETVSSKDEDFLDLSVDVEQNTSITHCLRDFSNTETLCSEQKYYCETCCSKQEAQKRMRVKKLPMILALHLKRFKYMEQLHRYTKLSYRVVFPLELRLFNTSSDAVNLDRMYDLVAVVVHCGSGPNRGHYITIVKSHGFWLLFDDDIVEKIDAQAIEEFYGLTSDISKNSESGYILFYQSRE
HA-USP46-ΔK92 (P62069, form named): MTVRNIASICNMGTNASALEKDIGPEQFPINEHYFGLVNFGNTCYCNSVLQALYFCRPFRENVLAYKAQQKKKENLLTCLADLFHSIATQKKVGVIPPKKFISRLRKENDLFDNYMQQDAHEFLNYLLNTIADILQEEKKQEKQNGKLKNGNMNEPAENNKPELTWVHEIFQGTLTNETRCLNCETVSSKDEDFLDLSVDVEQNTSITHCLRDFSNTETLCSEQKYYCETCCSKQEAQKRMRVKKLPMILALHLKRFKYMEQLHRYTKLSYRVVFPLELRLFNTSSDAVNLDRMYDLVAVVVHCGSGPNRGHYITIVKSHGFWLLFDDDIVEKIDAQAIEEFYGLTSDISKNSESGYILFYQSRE

VC-tagged SIRT2 = biological target: T2, VC-tagged SIRT2 (UniProt Q8VDQ8)
T2 sequence: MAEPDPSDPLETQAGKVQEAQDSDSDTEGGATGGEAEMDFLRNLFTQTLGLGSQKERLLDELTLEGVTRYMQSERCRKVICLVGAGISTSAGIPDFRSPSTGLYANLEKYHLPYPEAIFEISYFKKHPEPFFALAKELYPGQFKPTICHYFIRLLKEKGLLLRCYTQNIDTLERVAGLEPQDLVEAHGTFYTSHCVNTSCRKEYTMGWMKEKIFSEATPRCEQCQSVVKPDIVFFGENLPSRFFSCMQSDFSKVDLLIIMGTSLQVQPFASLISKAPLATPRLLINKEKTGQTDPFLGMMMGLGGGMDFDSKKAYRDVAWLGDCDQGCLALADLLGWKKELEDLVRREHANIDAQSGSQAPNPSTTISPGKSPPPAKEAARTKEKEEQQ

VC-tagged HAP1 = biological target: T3, VC-tagged HAP1 (UniProt O35668)
T3 sequence: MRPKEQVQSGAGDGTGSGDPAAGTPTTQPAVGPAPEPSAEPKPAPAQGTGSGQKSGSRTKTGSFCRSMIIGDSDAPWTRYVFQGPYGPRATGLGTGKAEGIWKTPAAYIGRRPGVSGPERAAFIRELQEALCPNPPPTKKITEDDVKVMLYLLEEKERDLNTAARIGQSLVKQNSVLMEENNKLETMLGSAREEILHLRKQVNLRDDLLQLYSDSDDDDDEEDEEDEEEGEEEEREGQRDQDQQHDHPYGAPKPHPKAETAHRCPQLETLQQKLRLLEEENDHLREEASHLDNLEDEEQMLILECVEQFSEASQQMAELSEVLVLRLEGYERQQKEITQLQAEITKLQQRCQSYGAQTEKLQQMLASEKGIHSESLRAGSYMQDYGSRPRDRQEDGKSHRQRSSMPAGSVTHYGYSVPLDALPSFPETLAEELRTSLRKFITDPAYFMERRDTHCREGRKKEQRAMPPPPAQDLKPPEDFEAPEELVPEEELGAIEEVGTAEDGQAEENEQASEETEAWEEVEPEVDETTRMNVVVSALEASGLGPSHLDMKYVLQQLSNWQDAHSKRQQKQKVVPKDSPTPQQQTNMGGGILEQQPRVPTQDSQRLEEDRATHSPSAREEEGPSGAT

VC-tagged TPGS1 = biological target: T4, VC-tagged TPGS1 (UniProt Q99MS8)
T4 sequence: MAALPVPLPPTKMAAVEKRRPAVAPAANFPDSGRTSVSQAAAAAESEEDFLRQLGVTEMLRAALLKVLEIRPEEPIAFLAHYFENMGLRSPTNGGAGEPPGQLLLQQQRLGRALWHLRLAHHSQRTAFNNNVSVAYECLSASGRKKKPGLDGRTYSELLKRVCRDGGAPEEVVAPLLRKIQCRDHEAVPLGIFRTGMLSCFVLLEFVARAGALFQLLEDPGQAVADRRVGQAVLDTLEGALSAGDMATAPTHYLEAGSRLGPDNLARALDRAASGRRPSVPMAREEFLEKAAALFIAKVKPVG

binding (VC-tagged KIF2A) | binding (VC-tagged CCP110) | binding (VC-tagged SIRT2) | binding (VC-tagged HAP1) | binding (VC-tagged TPGS1) | Substance
binds | binds | binds | binds | binds | HA-USP46-WT (from UniProt P62069 1-366) (enzyme)
binds | binds | binds | binds | binds | HA-USP46-ΔK92 (from UniProt P62069 1-366) (enzyme)
